This is an account of results in patent US9445993B2, “Nanotechnology approach for inhalation therapies” (Rutgers, The State University of New Jersey, priority 2012, dated 2016).

In series [1] the test system is 84 key genes involved in tissue remodeling during wound repair and development of fibrosis; HIF1A, VHL. The series is described as follows: Gene expression by QPCR (Mouse Fibrosis RT Profiler PCR Array) and RT-PCR of HIF1A, VHL. Format: in vivo, mice.
Series [2] concerns VEGF, CCL12, MMP3 and HIF1A proteins. Kind of series: Immunohistochemistry of lung tissue sections. The class given is in vivo, mice.
Setting [3] is: after instillation of bleomycin.

For bleomycin, in series [1] (RT-PCR, after instillation of bleomycin), the “expression of HIF1A and VHL genes” value was “overexpression of HIF1A and suppression of VHL genes”. For the same substance, the “expression of genes PLG, PLAU, MMPs, TIMP1, AGT, BMP7, CCL11, CCL12, IFNG, interleukins, IL13RA2, INHBE, TNF, FASL, ITGB8, TGIF1” value in series [1] (after bleomycin instillation) is given as “substantially increased”. Further, in series [1] (setting [3]), the “expression of ENG, TGFBR2 and SMAD6 genes” value is recorded as “significantly downregulated”; the “expression of genes encoding VEGF, ITGA1, CAV1 and signal transducer and activator of transcription 6 (STATE)” value is recorded as “decreased”. Further, the “number of studied genes upregulated by more than 5 times” value in series [1] (of 84 genes, after instillation of bleomycin 1.5 U/kg) is given as 24. Further, the “number of genes downregulated more than 5-fold” value in series [1] (out of 84 genes, after instillation of bleomycin 1.5 U/kg) amounted to 7. Moreover, in series [2] (after bleomycin instillation), the “expression of HIF1A protein” value was “upregulated”; the “expression of chemokine CCL12 and matrix metalloproteinase MMP3 proteins” value is recorded as “induced overexpression of both proteins”. Also, the “VEGF protein expression in lung tissues” value in series [2] (setting [3]) is listed as “substantially decreased”.
